Measurements reported in the supplement of paper PMC11732987, “Enantioselective OTUD7B fragment discovery through chemoproteomics screening and high-throughput optimisation” (Communications Chemistry, 2025).
Some of the results follow. The data scatter; read single values as rough.

The chains behind the UniProt entries cited, without tags or fusion partners. Where a name states a change or a piece, a line headed by the entry shows the natural chain unless it says otherwise.
UniProt Q14573, whole entry, looked up: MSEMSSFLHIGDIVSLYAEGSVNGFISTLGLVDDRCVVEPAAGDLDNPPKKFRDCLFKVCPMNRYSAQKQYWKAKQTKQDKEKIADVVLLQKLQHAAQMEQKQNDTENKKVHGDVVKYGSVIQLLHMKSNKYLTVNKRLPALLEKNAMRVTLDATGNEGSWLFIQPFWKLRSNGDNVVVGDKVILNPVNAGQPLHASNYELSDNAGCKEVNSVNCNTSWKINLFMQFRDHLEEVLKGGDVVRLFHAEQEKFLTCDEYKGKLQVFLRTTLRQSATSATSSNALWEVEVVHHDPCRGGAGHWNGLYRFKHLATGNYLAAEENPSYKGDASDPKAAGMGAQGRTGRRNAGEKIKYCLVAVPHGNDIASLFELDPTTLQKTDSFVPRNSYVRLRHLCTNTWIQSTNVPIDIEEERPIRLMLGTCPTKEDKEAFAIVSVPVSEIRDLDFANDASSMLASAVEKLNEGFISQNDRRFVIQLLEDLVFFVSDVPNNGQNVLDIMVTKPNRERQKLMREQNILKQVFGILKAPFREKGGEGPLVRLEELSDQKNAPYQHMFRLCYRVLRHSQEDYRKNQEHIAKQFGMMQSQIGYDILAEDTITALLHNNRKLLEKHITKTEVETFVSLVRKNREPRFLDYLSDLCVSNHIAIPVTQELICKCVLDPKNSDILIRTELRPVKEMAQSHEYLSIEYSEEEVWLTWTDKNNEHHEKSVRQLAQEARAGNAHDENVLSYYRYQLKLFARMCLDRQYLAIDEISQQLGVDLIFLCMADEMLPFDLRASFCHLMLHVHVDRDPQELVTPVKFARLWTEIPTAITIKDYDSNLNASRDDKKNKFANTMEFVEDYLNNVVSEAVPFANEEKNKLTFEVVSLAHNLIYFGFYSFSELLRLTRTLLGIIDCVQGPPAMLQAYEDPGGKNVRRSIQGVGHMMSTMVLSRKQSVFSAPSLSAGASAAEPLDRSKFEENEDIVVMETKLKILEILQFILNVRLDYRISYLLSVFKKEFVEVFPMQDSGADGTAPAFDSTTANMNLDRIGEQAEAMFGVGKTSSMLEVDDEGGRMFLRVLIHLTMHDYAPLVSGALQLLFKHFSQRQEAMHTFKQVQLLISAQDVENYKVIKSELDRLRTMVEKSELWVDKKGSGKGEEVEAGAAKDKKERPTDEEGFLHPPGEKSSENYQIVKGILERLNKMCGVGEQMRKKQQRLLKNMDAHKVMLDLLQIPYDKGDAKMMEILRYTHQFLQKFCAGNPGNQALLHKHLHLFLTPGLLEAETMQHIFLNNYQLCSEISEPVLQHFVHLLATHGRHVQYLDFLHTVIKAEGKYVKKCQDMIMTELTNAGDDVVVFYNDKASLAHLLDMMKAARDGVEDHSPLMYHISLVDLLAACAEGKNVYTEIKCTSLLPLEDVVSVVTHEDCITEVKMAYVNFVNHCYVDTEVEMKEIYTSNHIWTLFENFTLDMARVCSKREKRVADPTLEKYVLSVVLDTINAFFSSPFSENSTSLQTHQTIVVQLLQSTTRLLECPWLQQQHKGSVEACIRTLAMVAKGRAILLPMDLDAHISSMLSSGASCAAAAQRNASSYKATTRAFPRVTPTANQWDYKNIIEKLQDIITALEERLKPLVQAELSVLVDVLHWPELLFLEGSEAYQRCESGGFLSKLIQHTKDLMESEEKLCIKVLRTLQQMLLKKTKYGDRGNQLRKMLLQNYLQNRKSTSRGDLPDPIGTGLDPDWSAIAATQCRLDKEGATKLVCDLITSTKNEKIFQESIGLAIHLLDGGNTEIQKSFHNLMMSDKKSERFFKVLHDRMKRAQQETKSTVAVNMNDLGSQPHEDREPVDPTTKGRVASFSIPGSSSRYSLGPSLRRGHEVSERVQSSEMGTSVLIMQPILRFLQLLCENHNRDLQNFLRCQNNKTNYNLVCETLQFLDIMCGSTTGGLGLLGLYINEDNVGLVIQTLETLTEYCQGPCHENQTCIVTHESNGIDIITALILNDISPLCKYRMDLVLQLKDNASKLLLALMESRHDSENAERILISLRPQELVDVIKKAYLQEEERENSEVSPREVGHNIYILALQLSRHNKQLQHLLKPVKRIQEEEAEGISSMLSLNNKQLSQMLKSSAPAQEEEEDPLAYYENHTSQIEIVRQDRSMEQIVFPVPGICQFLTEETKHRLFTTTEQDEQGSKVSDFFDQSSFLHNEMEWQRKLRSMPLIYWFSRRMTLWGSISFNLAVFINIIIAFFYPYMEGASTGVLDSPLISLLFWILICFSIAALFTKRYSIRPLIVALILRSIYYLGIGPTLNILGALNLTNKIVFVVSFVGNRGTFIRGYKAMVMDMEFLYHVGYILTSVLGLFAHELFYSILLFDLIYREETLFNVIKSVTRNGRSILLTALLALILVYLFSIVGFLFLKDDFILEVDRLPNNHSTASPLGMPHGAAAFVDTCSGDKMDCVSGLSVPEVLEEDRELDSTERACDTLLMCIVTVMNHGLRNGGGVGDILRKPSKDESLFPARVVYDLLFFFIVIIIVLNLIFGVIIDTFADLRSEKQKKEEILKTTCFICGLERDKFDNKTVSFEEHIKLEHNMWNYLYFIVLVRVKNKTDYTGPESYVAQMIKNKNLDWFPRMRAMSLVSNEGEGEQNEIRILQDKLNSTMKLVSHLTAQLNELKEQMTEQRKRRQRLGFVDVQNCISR
UniProt Q02241: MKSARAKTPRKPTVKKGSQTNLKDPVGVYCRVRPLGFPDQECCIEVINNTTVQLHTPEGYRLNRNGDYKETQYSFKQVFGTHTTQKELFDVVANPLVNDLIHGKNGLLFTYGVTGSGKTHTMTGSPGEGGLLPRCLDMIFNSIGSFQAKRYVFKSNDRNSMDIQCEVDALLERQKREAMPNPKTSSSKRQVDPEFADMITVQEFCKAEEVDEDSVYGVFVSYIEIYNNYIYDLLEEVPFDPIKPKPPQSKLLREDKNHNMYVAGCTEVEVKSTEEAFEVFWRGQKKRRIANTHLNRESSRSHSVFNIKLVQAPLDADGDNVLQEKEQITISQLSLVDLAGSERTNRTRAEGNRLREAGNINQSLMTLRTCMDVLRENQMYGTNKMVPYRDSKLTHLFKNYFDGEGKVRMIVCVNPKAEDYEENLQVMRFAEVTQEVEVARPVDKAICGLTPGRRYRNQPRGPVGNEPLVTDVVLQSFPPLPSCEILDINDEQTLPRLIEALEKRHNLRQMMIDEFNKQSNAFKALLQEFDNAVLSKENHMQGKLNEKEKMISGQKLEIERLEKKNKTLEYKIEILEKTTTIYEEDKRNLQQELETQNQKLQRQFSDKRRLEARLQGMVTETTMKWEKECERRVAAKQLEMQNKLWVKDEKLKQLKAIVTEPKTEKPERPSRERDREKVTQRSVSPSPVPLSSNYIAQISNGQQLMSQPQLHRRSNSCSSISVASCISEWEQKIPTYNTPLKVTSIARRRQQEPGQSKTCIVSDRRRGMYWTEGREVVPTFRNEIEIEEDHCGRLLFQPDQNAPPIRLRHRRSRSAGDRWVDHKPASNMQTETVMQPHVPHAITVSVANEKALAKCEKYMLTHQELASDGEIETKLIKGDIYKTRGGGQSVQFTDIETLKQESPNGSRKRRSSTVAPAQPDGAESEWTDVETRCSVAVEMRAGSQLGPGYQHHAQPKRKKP
UniProt P41229: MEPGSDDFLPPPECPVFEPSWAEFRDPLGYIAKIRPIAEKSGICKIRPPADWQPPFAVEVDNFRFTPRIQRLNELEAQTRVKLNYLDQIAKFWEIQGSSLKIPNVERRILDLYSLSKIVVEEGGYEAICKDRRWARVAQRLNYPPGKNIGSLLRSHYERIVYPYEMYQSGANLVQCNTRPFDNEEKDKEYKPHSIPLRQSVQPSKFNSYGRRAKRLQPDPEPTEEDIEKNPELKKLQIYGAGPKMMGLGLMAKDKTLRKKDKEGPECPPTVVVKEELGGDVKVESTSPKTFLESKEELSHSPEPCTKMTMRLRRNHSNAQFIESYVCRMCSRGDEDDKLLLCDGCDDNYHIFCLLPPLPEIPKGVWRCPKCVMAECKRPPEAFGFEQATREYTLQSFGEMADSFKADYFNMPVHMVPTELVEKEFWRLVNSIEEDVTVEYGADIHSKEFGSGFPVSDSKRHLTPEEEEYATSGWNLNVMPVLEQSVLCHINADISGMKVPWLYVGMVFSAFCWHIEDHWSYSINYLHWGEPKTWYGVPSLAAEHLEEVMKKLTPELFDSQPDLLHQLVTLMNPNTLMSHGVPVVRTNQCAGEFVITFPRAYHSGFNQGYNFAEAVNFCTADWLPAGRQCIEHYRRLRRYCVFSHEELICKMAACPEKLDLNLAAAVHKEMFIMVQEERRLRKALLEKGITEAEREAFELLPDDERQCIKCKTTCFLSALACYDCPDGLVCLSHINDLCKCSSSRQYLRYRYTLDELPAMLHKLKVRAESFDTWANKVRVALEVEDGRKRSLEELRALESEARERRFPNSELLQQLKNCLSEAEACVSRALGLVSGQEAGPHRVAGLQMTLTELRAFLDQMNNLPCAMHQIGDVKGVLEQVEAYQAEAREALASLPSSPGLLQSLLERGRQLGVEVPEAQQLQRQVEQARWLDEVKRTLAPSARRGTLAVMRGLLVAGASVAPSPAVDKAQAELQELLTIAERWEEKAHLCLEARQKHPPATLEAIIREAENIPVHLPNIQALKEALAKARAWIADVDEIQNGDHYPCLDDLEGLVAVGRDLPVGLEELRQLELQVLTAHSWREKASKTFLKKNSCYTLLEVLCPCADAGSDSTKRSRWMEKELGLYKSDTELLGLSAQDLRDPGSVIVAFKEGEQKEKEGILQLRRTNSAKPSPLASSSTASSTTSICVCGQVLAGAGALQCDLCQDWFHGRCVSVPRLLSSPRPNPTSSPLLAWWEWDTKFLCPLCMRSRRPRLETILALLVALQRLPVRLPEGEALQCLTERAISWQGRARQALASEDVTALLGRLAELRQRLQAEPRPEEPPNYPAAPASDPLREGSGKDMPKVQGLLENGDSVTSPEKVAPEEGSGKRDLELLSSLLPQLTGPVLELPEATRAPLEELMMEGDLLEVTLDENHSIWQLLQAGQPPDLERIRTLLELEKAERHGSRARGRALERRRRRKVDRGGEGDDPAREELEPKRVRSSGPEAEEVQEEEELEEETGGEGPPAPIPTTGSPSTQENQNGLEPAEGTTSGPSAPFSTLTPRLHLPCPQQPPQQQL
UniProt Q9NXV2: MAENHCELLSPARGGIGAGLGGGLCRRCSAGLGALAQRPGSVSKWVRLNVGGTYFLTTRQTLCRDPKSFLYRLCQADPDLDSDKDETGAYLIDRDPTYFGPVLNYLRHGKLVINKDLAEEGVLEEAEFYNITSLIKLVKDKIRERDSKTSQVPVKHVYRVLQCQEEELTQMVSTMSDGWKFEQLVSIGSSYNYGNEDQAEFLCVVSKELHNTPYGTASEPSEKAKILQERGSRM
UniProt Q96J02: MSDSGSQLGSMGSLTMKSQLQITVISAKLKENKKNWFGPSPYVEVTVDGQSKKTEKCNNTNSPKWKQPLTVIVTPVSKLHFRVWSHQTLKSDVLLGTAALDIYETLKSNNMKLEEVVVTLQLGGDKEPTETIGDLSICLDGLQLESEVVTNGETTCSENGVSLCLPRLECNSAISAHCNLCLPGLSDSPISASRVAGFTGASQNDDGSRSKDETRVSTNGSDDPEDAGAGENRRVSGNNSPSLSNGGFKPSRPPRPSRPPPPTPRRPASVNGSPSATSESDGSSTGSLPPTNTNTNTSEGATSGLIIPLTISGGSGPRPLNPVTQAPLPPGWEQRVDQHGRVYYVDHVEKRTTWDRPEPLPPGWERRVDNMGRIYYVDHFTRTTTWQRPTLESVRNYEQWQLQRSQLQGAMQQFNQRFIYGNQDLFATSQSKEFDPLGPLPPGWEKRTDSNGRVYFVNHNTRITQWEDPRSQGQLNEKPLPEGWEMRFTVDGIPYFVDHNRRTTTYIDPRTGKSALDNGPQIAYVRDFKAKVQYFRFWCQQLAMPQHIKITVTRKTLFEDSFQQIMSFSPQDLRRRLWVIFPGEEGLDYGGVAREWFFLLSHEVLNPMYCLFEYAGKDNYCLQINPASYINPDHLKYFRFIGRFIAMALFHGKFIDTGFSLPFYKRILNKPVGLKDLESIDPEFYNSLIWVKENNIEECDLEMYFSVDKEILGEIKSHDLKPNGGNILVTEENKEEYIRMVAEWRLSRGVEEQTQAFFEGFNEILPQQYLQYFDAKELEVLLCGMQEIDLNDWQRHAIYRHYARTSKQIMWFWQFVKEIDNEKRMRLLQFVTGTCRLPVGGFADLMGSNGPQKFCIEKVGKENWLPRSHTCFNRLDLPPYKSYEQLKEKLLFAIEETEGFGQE

Tests used:
[1] = compound: ClCC(=O)N[C@@H]1CCCc2ccccc12; experiment: log2 mean competition ratio of IA-DTB cysteine labelling (DMSO/compound) (log2 ratio); higher = stronger cysteine engagement by compound; details: treatment time: 4 h, cell line lysate: HEK293T
Description: (§1)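 IA-DTB competitive cysteine chemoproteomics in HEK293T RIPA lysate. Lysates were treated with compound 29 or 30 at 50 or 200 µM for 4 h, then IA-DTB (500 µM, 1 h), trypsin-digested, NeutrAvidin-enriched and analysed by diaPASEF. Competition ratio = intensity DMSO / intensity compound (n=4 treated, n=64 DMSO); binding: mean log2 CR ≥ 1 and p ≤ 0.05 plus QC filters. Target is the cysteine site.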

[2] = compound: ClCC(=O)N[C@H]1CCCc2ccccc12; experiment: as above; details: treatment time: 4 h, cell line lysate: HEK293T
Description: as §1

Target	log2 mean competition ratio ([1]; 50 µM)	log2 mean competition ratio ([1]; 200 µM)	log2 mean competition ratio ([2]; 50 µM)	log2 mean competition ratio ([2]; 200 µM)
ITPR3 C420 (UniProt Q14573)	0.317	-0.443	0.557	-0.223
JPH1 C626 (UniProt Q9HDC5)	-0.109	0.011	-0.198	0.00998
KIF18A C749	-0.104	0.278	-0.406	0.229
KIF23 C165 (UniProt Q02241)	-0.186	-0.0448	-0.376	-0.0999
KDM5C C129 (UniProt P41229)	-0.325	-0.113	-0.158	-0.15
IRS4 C4	0.0976	0.196	0.332	0.168
KCTD5 C6 (UniProt Q9NXV2)	-0.19	0.732	-0.537	0.365
ITCH C57 (UniProt Q96J02)	-0.0153	5.68e-05	-0.126	-0.0397
